In PMC1933539:
These are yes or no findings as the source states them, for the method shown. Binding can be weak; no strength is given.

Target: T1, YscM1 (Yersinia enterocolitica) (UniProt Q7BFA3)
T1 sequence: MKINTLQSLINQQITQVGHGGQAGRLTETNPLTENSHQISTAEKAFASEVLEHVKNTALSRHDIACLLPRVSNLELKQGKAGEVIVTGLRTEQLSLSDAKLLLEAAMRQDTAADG
Assay: native gel or EMSA; both purified

## SycO (Yersinia enterocolitica type three secretion chaperone SycO)
  binding: binds
